{"source": "patent US20090143392A1", "about": "“Methods of Treating Obesity and Metabolic Disorders” (ELBION GMBH, priority 2007, published 2009)", "system": "MK-801-induced psychosis", "experiment": "MK-801-induced psychosis: hyperactivity and stereotyped sniffing", "assay_type": "in vivo", "conditions": "p.o.; female Wistar rats; MK-801 0.1 mg/kg i.p. 10 min before test; compound 30 min prior; recorded 1 h", "protocol": "Female Wistar rats (Crl: (WI) BR, Charles River, Sulzfeld, Germany) weighing 150 to 180 g were used for the MK-801-induced psychosis. Animals were housed under standard conditions in groups of five on a 12 h light/dark cycle (light on at 0600 h) with ad libitum access to food (Pellets, ssniff M/R 15, Spezialdiät GmbH, Soest/Westfalen) and water.\nMK-801 (dizocilpine, MW 337.37) was obtained by Tocris, distributed by Biotrend Chemikalien GmbH, Köln, Germany.\nHydroxyethylcellulose was solved in distilled water.\nMK-801 was solved in saline so that an administration volume of 0.5 ml/100 g was reached. The suspensions and solution were placed on a magnetic stirrer before and during dosing procedures. […]\nLocomotor activity of the rats was recorded by the MotiTest Apparatus (TSE, Bad Homburg, Germany). […] Horizontal movements were recorded by 32 infrared photocells arranged along the bottom of each wall of the arena. The activity [sec] was measured by the computer program “ActiMot” (TSE, Bad Homburg, Germany).\nStereotyped sniffing was scored by the experimenter every five minutes for one hour (12 intervals) according to the method described by Andine et al. (1999). […]\nAt the beginning of the test the rats were placed in the centre of the squared arena of the MotiTest apparatus. Behaviour of the rats was recorded for one hour. […]\nResults were analysed by one way analysis of variance (ANOVA). […]", "note": "Some entries share one result that the patent states for a list of compounds.", "data": [{"smiles": "CCCc1nc(C)c2c(C)nc3ccc(OC)nc3n12", "note": "[Example 38a, 3,4-Dimethyl-8-methoxy-1-propyl-imidazo[1,5-a]-pyrido[3,2-e]-pyrazine]", "values": [{"measurement": "dose that significantly reversed MK-801-induced hyperactivity", "result": "≥ 5.0", "unit": "mg/kg"}, {"measurement": "dose that significantly reversed MK-801-induced stereotyped sniffing", "result": "≥ 2.5", "unit": "mg/kg"}]}]}
